Results published in US20180194836A1, “PREVENTION OF METASTASIS AND RECURRENCE AFTER PRIMARY CANCER TREATMENT” (ENCYT TECHNOLOGIES, INC., priority 2014, published 2018).

Assay: Plasma cytokine levels before and after surgical removal of tumours (EMD Millipore kits, Luminex 200)
Type: in vivo, human

## FGF2
Average of patients, after surgery
  FGF2 plasma level, Average, After: 139.7117

## HIGF-1
Average of patients, Day 14 after surgery
  HIGF-1 plasma level, Average, D14: 82540.14

## HIGF-2
After surgery and at Day 1, Day 2, Day 3 and Day 7 after surgery
  change of HIGF-2 levels vs. before surgery: Significant down-regulation of HIGF-2 levels after surgery and at Day 1, Day 2,

## IL1B
After surgery and at Day 1 and Day 2 after surgery
  change of IL1B levels vs. before surgery: Significant down-regulation of IL1B levels after surgery and at Day 1 and Day 2
Average of patients, Day 3 after surgery
  IL1B plasma level, Average, D3: 4.957
Average of patients, Day 28 after surgery
  IL1B plasma level, Average, D28: 5.995
Average of patients, before surgery
  IL1B plasma level, Average, Before: 4.154

## Il-8: cytokine IL-8 added to cultured CTCs
After surgery
  change of IL-8 levels vs. before surgery: IL-8 levels are unchanged after surgery.
